Reference: article PMC7550686
These are yes or no findings as the source states them, for the method shown. For some assays here: In cells and extracts the contact can be indirect. Some results given as binding are weak or reduced against the parent protein; the word gives no strength. Where a sequence is shown, tags or fusion partners need not be part of it. Each block holds one binder with its values, some of them ahead of it.

What was measured:
[1] = target: T1, AFP2 (ABI Five Binding Protein2) fused to the LexA DNA binding domain (Arabidopsis thaliana) (UniProt Q9LMX5); test: two-hybrid; AFP2 and truncations as LexA DBD baits, SnRK1α1 as B42 AD prey; mated yeast scored on LacZ (X-gal) and LEU (leu-) reporters in parallel, 4 days
T1 sequence: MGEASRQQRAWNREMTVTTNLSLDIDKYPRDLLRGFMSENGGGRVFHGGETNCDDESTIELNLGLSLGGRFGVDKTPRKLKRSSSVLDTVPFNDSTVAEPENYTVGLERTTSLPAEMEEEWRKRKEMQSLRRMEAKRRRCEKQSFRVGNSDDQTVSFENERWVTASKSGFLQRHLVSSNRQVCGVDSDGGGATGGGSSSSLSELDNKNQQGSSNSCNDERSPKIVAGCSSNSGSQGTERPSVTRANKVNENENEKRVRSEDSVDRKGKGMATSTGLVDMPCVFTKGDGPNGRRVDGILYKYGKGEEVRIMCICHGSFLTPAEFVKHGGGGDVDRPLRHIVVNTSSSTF

[2] = target: T2, full-length AFP2 fused to half-YFP (YFP^C-HA-AFP2 or YFP^N fusion) (Arabidopsis thaliana) (UniProt Q9LMX5); test: split reporter; BiFC with half-YFP (YFP^N/YFP^C) fusions transiently co-expressed in N. benthamiana leaf epidermal cells, confocal microscopy 72 h after infiltration
T2 sequence: T1 sequence

binding [1]: binds
B1: SnRK1α1 fused to the B42 activation domain (enzyme, UniProt Q38997 1-512)
chain: MDGSGTGSRSGVESILPNYKLGRTLGIGSFGRVKIAEHALTGHKVAIKILNRRKIKNMEMEEKVRREIKILRLFMHPHIIRLYEVIETPTDIYLVMEYVNSGELFDYIVEKGRLQEDEARNFFQQIISGVEYCHRNMVVHRDLKPENLLLDSKCNVKIADFGLSNIMRDGHFLKTSCGSPNYAAPEVISGKLYAGPEVDVWSCGVILYALLCGTLPFDDENIPNLFKKIKGGIYTLPSHLSPGARDLIPRMLVVDPMKRVTIPEIRQHPWFQAHLPRYLAVPPPDTVQQAKKIDEEILQEVINMGFDRNHLIESLRNRTQNDGTVTYYLILDNRFRASSGYLGAEFQETMEGTPRMHPAESVASPVSHRLPGLMEYQGVGLRSQYPVERKWALGLQSRAHPREIMTEVLKALQDLNVCWKKIGHYNMKCRWVPNSSADGMLSNSMHDNNYFGDESSIIENEAAVKSPNVVKFEIQLYKTRDDKYLLDLQRVQGPQFLFLDLCAAFLAQLRVL

binding [2]: binds
B2: SnRK1α1 fused to half-YFP (YFP^N-myc-SnRK1α1 or YFP^C fusion) (enzyme, UniProt Q38997 1-512)
chain: B1 chain
